Results deposited as PubChem BioAssay AID686938 (Drosophila RNAi Screening Center, 2013)
In all, the deposit lists about 23,000 reagents; this is a random part of those that have a named target and a result. Over the whole deposit, 75 (0.33%) got an active call. 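Raw plate signals without normalisation; calls rest on plate z-scores that were not deposited; ratio present for only 364 wells.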 Entries without a mark were called inactive. The numbers tell different reagents against one gene apart. A plus sign joins genes that one reagent is predicted to hit. No sequences are given here. Not stated in the record: the dose of the treatment.

Screen: 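Fly genes required for calcium entry once internal stores are emptied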 (primary screen)
Cells: Drosophila S2R+ cells
Reagent: long dsRNA against Drosophila genes, about 0.25 µg dsRNA per well, roughly 10,000 cells
Duration: 5 days of knock-down before the calcium assay
Conditions: thapsigargin (SERCA pump blocker) to empty calcium stores; entry signal taken 4 min after adding it
Measured: 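Per-well fluo-4 fluorescence in two replicates, unnormalised, measured in resting cells and 4 min after store depletion by the SERCA blocker thapsigargin; ratio of the two present in few wells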
Scale: calcium entry signal: higher = stronger calcium signal after store depletion; resting calcium signal: higher = higher resting calcium signal
Call rule: 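Called when the plate z-score of the entry-to-rest ratio, mean of duplicates, falls below −3; wells with low overall dye signal (Fmax z below −2) or more than five off-targets excluded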
Meaning of the calls: active = strongly reduced calcium entry; inactive = no strong reduction

For CG3483 (GeneID 37900), how do the results read?
calcium entry signal, replicate 1 (fluorescence units): 3.64e7; resting calcium signal, replicate 1 (fluorescence units): 2.01e7

What is on record for CG7675 (GeneID 42211)?
calcium entry signal, replicate 1 (fluorescence units): 4.85e7; calcium entry signal, replicate 2 (fluorescence units): 4.14e7; resting calcium signal, replicate 1 (fluorescence units): 2.16e7; resting calcium signal, replicate 2 (fluorescence units): 1.90e7

What did the screen give for CG15701 (GeneID 36801)?
calcium entry signal, replicate 1 (fluorescence units): 3.74e7; calcium entry signal, replicate 2 (fluorescence units): 3.57e7; resting calcium signal, replicate 1 (fluorescence units): 1.66e7; resting calcium signal, replicate 2 (fluorescence units): 1.72e7

With CG9643 (GeneID 33504), what was measured?
calcium entry signal, replicate 1 (fluorescence units): 1.96e7; calcium entry signal, replicate 2 (fluorescence units): 2.21e7; resting calcium signal, replicate 1 (fluorescence units): 1.06e7; resting calcium signal, replicate 2 (fluorescence units): 1.15e7

For CG7888 (GeneID 39232), what does the deposit list?
calcium entry signal, replicate 1 (fluorescence units): 4.33e7; calcium entry signal, replicate 2 (fluorescence units): 3.10e7; resting calcium signal, replicate 1 (fluorescence units): 2.80e7; resting calcium signal, replicate 2 (fluorescence units): 1.30e7

How did the screen score GC1 (GeneID 41448)?
calcium entry signal, replicate 1 (fluorescence units): 4.03e7; calcium entry signal, replicate 2 (fluorescence units): 3.66e7; resting calcium signal, replicate 1 (fluorescence units): 1.83e7; resting calcium signal, replicate 2 (fluorescence units): 1.90e7

For bur (GeneID 45830), what was measured?
calcium entry signal, replicate 1 (fluorescence units): 2.74e7; resting calcium signal, replicate 1 (fluorescence units): 1.31e7

With Lkb1 (GeneID 41673), how do the results read?
calcium entry signal, replicate 1 (fluorescence units): 2.91e7; calcium entry signal, replicate 2 (fluorescence units): 3.42e7; resting calcium signal, replicate 1 (fluorescence units): 1.30e7; resting calcium signal, replicate 2 (fluorescence units): 1.43e7

Records listed so far whose target name begins with C or c (5):
CG3483 (GeneID 37900): calcium entry signal, replicate 1 (fluorescence units) = 3.64e7; resting calcium signal, replicate 1 (fluorescence units) = 2.01e7
CG7675 (GeneID 42211): calcium entry signal, replicate 1 (fluorescence units) = 4.85e7; calcium entry signal, replicate 2 (fluorescence units) = 4.14e7; resting calcium signal, replicate 1 (fluorescence units) = 2.16e7; resting calcium signal, replicate 2 (fluorescence units) = 1.90e7
CG15701 (GeneID 36801): calcium entry signal, replicate 1 (fluorescence units) = 3.74e7; calcium entry signal, replicate 2 (fluorescence units) = 3.57e7; resting calcium signal, replicate 1 (fluorescence units) = 1.66e7; resting calcium signal, replicate 2 (fluorescence units) = 1.72e7
CG9643 (GeneID 33504): calcium entry signal, replicate 1 (fluorescence units) = 1.96e7; calcium entry signal, replicate 2 (fluorescence units) = 2.21e7; resting calcium signal, replicate 1 (fluorescence units) = 1.06e7; resting calcium signal, replicate 2 (fluorescence units) = 1.15e7
CG7888 (GeneID 39232): calcium entry signal, replicate 1 (fluorescence units) = 4.33e7; calcium entry signal, replicate 2 (fluorescence units) = 3.10e7; resting calcium signal, replicate 1 (fluorescence units) = 2.80e7; resting calcium signal, replicate 2 (fluorescence units) = 1.30e7

Additional records follow:
For CG9855 (GeneID 40556), what was measured?
calcium entry signal, replicate 1 (fluorescence units): 4.22e7; calcium entry signal, replicate 2 (fluorescence units): 5.76e7; resting calcium signal, replicate 1 (fluorescence units): 1.99e7; resting calcium signal, replicate 2 (fluorescence units): 2.73e7

Which result is listed for nemy (GeneID 36395) #1?
calcium entry signal, replicate 1 (fluorescence units): 3.77e7; calcium entry signal, replicate 2 (fluorescence units): 5.49e7; resting calcium signal, replicate 1 (fluorescence units): 1.77e7; resting calcium signal, replicate 2 (fluorescence units): 2.55e7

For nemy (GeneID 36395) #2, how do the results read?
calcium entry signal, replicate 1 (fluorescence units): 4.20e7; calcium entry signal, replicate 2 (fluorescence units): 7.07e7; resting calcium signal, replicate 1 (fluorescence units): 1.73e7; resting calcium signal, replicate 2 (fluorescence units): 2.75e7

For CG5808 (GeneID 42957), what does the deposit list?
calcium entry signal, replicate 1 (fluorescence units): 2.95e7; calcium entry signal, replicate 2 (fluorescence units): 2.76e7; resting calcium signal, replicate 1 (fluorescence units): 1.47e7; resting calcium signal, replicate 2 (fluorescence units): 1.37e7

For Fur1 (GeneID 47220) #1, what does the deposit list?
calcium entry signal, replicate 1 (fluorescence units): 3.16e7; calcium entry signal, replicate 2 (fluorescence units): 3.23e7; resting calcium signal, replicate 1 (fluorescence units): 1.52e7; resting calcium signal, replicate 2 (fluorescence units): 1.62e7

For Fur1 (GeneID 47220) #2, what was measured?
calcium entry signal, replicate 1 (fluorescence units): 2.57e7; calcium entry signal, replicate 2 (fluorescence units): 2.30e7; resting calcium signal, replicate 1 (fluorescence units): 1.23e7; resting calcium signal, replicate 2 (fluorescence units): 1.24e7

With Pcd (GeneID 43499), what was measured?
calcium entry signal, replicate 1 (fluorescence units): 3.79e7; calcium entry signal, replicate 2 (fluorescence units): 4.90e7; resting calcium signal, replicate 1 (fluorescence units): 1.86e7; resting calcium signal, replicate 2 (fluorescence units): 2.03e7

With CR42548 (GeneID 8673959), what does the deposit list?
calcium entry signal, replicate 1 (fluorescence units): 3.27e7; calcium entry signal, replicate 2 (fluorescence units): 2.81e7; resting calcium signal, replicate 1 (fluorescence units): 1.56e7; resting calcium signal, replicate 2 (fluorescence units): 1.46e7

For CG14111 (GeneID 39497), what was measured?
calcium entry signal, replicate 1 (fluorescence units): 3.15e7; calcium entry signal, replicate 2 (fluorescence units): 4.49e7; resting calcium signal, replicate 1 (fluorescence units): 1.64e7; resting calcium signal, replicate 2 (fluorescence units): 1.88e7

What is on record for Smyd4-3 (GeneID 36234)?
calcium entry signal, replicate 1 (fluorescence units): 2.37e7; calcium entry signal, replicate 2 (fluorescence units): 3.03e7; resting calcium signal, replicate 1 (fluorescence units): 1.13e7; resting calcium signal, replicate 2 (fluorescence units): 1.37e7

How did the screen score CR13656 (GeneID 8674041) #1?
calcium entry signal, replicate 1 (fluorescence units): 2.87e7; calcium entry signal, replicate 2 (fluorescence units): 3.76e7; resting calcium signal, replicate 1 (fluorescence units): 1.39e7; resting calcium signal, replicate 2 (fluorescence units): 1.80e7

What did the screen give for CR13656 (GeneID 8674041) #2?
calcium entry signal, replicate 1 (fluorescence units): 3.31e7; calcium entry signal, replicate 2 (fluorescence units): 5.16e7; resting calcium signal, replicate 1 (fluorescence units): 1.81e7; resting calcium signal, replicate 2 (fluorescence units): 2.18e7

Which result is listed for CG33502 + CG32857 + CG32500 #1?
calcium entry signal, replicate 1 (fluorescence units): 4.36e7; calcium entry signal, replicate 2 (fluorescence units): 3.59e7; resting calcium signal, replicate 1 (fluorescence units): 1.89e7; resting calcium signal, replicate 2 (fluorescence units): 1.53e7

For CG33502 + CG32857 + CG32500 #2, what was measured?
calcium entry signal, replicate 1 (fluorescence units): 4.53e7; calcium entry signal, replicate 2 (fluorescence units): 4.32e7; resting calcium signal, replicate 1 (fluorescence units): 2.09e7; resting calcium signal, replicate 2 (fluorescence units): 1.65e7
